Drawing on PMC10356786, this text covers binding for 2 molecules.

Chains of the proteins cited; added tags and fusions are not shown. Residues count along the entry.
UniProt O75581, residues 20-1613: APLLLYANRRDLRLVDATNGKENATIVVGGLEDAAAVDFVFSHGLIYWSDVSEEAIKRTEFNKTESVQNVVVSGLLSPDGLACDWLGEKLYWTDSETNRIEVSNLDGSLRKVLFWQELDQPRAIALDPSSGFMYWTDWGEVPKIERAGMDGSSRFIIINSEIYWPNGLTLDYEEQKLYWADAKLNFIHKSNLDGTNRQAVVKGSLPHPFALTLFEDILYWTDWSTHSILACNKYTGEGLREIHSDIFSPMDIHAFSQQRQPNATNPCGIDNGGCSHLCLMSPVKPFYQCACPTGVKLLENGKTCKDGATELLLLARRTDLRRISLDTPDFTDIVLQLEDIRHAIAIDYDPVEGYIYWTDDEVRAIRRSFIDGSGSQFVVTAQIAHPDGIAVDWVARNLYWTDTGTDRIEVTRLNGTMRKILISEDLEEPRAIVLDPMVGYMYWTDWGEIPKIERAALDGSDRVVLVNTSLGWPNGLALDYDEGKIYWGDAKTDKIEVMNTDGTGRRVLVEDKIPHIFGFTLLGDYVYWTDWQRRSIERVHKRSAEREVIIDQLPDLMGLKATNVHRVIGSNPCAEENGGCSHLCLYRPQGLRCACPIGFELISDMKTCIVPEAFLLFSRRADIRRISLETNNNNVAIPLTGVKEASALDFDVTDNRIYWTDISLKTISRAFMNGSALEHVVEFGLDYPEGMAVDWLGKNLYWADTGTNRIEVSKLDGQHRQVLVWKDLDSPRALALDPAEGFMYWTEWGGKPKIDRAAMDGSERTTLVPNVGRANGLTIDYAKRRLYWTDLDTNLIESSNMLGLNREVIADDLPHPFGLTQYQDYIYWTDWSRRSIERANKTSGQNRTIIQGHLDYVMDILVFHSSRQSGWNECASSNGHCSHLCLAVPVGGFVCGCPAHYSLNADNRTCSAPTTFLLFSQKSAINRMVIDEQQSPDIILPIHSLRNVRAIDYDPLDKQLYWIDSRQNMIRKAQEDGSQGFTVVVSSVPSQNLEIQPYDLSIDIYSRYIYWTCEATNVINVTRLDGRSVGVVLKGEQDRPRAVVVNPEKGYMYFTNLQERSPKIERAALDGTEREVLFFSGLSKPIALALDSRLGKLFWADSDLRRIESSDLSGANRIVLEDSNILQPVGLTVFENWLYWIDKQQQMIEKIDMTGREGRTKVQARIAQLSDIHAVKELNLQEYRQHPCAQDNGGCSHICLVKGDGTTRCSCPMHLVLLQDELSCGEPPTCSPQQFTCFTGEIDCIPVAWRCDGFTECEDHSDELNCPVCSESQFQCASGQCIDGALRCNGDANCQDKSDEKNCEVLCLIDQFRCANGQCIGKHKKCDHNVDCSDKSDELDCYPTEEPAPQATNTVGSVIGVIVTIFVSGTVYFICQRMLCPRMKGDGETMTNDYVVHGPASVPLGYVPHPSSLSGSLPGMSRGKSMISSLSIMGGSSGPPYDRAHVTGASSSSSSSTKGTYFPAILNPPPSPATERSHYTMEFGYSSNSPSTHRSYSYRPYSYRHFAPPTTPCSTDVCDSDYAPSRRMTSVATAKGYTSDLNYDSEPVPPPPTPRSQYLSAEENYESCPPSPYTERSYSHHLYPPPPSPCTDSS

No constants are given. Whether binding was seen depends on the method and setting. Binding seen in cells or lysates may run through a third protein. Some binding calls cover weakened binding; strength is not graded here. Sequences can lack the tags named with a protein.

The target in assay [1] is EGFP-tagged LRP6 (low-density lipoprotein receptor-related protein 6) (UniProt O75581). Briefly: FRET or BRET; FLIM-FRET (EGFP donor lifetime, mCherry acceptor; apparent FRET efficiency) in transfected YAMC, IMCE and IMCE βcat colonocytes fixed in 4% PFA and 0.2% glutaraldehyde; Wnt3a-conditioned media or control media for 30 min; pre-treatment with MβCD (10 mM, 30 min), mevastatin (5 µM, 24 h) or PAO (20 µM, 30 min) lowered the FRET efficiency. In general terms: BRET reads energy transfer from a luciferase to a nearby fluorophore.

Assay [2] has the same target. Briefly: FRET or BRET; FLIM-FRET as a1, but cells incubated with control media without Wnt3a (unstimulated).
Assay [3] addresses EGFP-tagged Lypd6 (Ly6 family protein LY6/PLAUR domain-containing 6) (UniProt Q86Y78). As to the kind of experiment: FRET or BRET; FLIM-FRET (EGFP donor lifetime, mCherry acceptor; apparent FRET efficiency) in transfected YAMC, IMCE and IMCE βcat colonocytes fixed in 4% PFA and 0.2% glutaraldehyde; Wnt3a-conditioned media or control media for 30 min; pre-treatment with MβCD (10 mM, 30 min), mevastatin (5 µM, 24 h) or PAO (20 µM, 30 min) lowered the FRET efficiency.

B1: mCherry-tagged Dvl1 (Dishevelled 1) (protein, UniProt O14640 1-695)
chain: MAETKIIYHMDEEETPYLVKLPVAPERVTLADFKNVLSNRPVHAYKFFFKSMDQDFGVVKEEIFDDNAKLPCFNGRVVSWLVLAEGAHSDAGSQGTDSHTDLPPPLERTGGIGDSRPPSFHPNVASSRDGMDNETGTESMVSHRRERARRRNREEAARTNGHPRGDRRRDVGLPPDSASTALSSELESSSFVDSDEDGSTSRLSSSTEQSTSSRLIRKHKRRRRKQRLRQADRASSFSSITDSTMSLNIVTVTLNMERHHFLGISIVGQSNDRGDGGIYIGSIMKGGAVAADGRIEPGDMLLQVNDVNFENMSNDDAVRVLREIVSQTGPISLTVAKCWDPTPRSYFTVPRADPVRPIDPAAWLSHTAALTGALPRYGTSPCSSAVTRTSSSSLTSSVPGAPQLEEAPLTVKSDMSAVVRVMQLPDSGLEIRDRMWLKITIANAVIGADVVDWLYTHVEGFKERREARKYASSLLKHGFLRHTVNKITFSEQCYYVFGDLCSNLATLNLNSGSSGTSDQDTLAPLPHPAAPWPLGQGYPYQYPGPPPCFPPAYQDPGFSYGSGSTGSQQSEGSKSSGSTRSSRRAPGREKERRAAGAGGSGSESDHTAPSGVGSSWRERPAGQLSRGSSPRSQASATAPGLPPPHPTTKAYTVVGGPPGGPPVRELAAVPPELTGSRQSFQKAMGNPCEFFVDIM
With B1, the figures for the binding entry in assay [1] and in assay [2] were “binds” and “binds weakly”, respectively.

B2: EGFP-tagged Lypd6 (Ly6 family protein LY6/PLAUR domain-containing 6) (protein, UniProt Q86Y78 23-147)
chain: AQSRDFTVKDIIYLHPSTTPYPGGFKCFTCEKAADNYECNRWAPDIYCPRETRYCYTQHTMEVTGNSISVTKRCVPLEECLSTGCRDSEHEGHKVCTSCCEGNICNLPLPRNETDATFATTSPIN
As for B2, the binding entry in assay [3] is reported as “binds”.
